# Screening data, single-dose tests

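Whole-cell growth test on Mycobacterium tuberculosis, read after 4 days in a medium based on cholesterol and the lipid DPPC; the read-out is not stated. Concentration: 500 µM. The record gives no direction; compounds that gave an IC50 in retests scored well above the rest, so higher reads as more growth inhibition. Of about 18,000 compounds tested this way, about 900 (5%) reached 50% or more in at least one test.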

Results are given as percent effect.
How 0% and 100% were set is not recorded. Most values in the screen are low, and negative values occur.
This is an unselected part of the compounds tested.

Compound	effect
O=C(COCC(F)(F)F)NCc1ccccn1	38.71
CC(C)c1cc(C(=O)N2CC(c3ccccn3)C2)no1	69.87
CC1(C#N)CCN(C(=O)CCc2cccc(O)c2)CC1	-1.323
Nc1nccnc1C(=O)NCCCN1CCCC1=O	0.9907
CC1(C(=O)NCCOC(N)=O)CCCc2ccccc21 (configuration not stated)	4.306
CSCCC(=O)NC(C1CCNCC1)[C@H]1C[C@H](O)C1 (some centres not stated)	-2.311
NC1CCN(C(=O)c2ccccc2Cl)C1 (configuration not stated)	5.745
CN1CCC(N2CCN(C(=O)c3cnc[nH]3)CC2)CC1	13.89
CSc1ccc(CC(=O)NCCN2CCCC2=O)cc1	8.76
Cc1cc(NC(=O)NCCN2CCC(C)CC2)n(C)n1	9.049
N#Cc1cnc(Oc2ccc3c(c2)CCC3=O)cn1	-29.95
COCCn1cnnc1CCNc1ncccn1	-34.62
COCCn1nc(-c2nc(CC(C)C)no2)ccc1=O	35.95
CC(=O)N(C)C1CCNCC1	4.559
CN(Cc1cc(=O)n(C)c(=O)n1C)C1CCS(=O)(=O)C1 (configuration not stated)	-4.025
Cc1ccc(C(=O)N2CCOCC2)c(=O)[nH]1	-4.758
CC(C)COc1cncc(NC2CCS(=O)(=O)C2)n1 (configuration not stated)	23.02
CCCS(=O)(=O)NCc1cc[nH]n1	-2.675
Cc1cc(C(=O)NCC(C)c2nc(C)cs2)nc(N)n1 (configuration not stated)	13.78
CN1CCCCC1CC(=O)NCCc1ccc(O)cc1 (configuration not stated)	-1.286
N#Cc1sccc1N1CCNCC1	2.916
CC[C@@H](O)CN1CCN(C(=O)NC(C)C)CC1	7.895
COC(=O)c1ccc(NC(=O)N2CCOC(C)C2)cc1 (configuration not stated)	12.4
CC(C)CNC(=O)Cc1c[nH]c2ncccc12	3.668
CS(=O)(=O)CCNC(=O)NCc1ccc(C#N)cc1F	-15.91
Cn1nccc1[C@H]1OCC[C@@H]1N	-8.576
CN(C)CCO[C@@H]1COCC[C@H]1NS(C)(=O)=O	1.817
O=C1CCC(=O)N1c1cnn(Cc2cccc(Cl)c2)c1	9.954
Cc1cc(NC(=O)CCN(C)C(C)CO)no1 (configuration not stated)	8.564
Cc1cc(Br)cc2cc(C(=O)NC(C)(CO)CO)oc12	54.59
OC1COC2(CCN(Cc3cc(F)cc(F)c3)CC2)C1 (configuration not stated)	-0.2681
Cc1nn2c(S(=O)(=O)NCC3CC3)c(C)nc2s1	-2.486
COc1cccc(CNCc2ccccn2)c1	12.99
O=C(Cc1cccc(O)c1)NCCn1cc(Cl)cn1	8.572
COCCCn1c(SC2CCCCNC2=O)n[nH]c1=O (configuration not stated)	3.455
CC(C)c1csc(C(=O)N2CCOc3ncccc32)n1	-10.67
CNC(=O)C(C)(C)CNC(=O)Nc1ccncc1F	6.186
Cc1nc(CCN)c(C)o1	-0.7911
COc1ccc(C(CNC(C)=O)N2CCCC2)cc1 (configuration not stated)	3.406
CCCS(=O)(=O)N1CCC(N)CC1	-13.14
Cn1nnnc1SCCC(=O)Nc1ccc(F)cc1	3.008
OCCN(CCO)CCc1ccccc1Cl	39.7
CC(C)N(C)C(=O)C(N)c1ccccc1 (configuration not stated)	1.446
CC(C)N(C)C(=O)C1CCCNC1 (configuration not stated)	-4.866
CC(C)(C)OC(=O)N1CC(O)CC(F)(F)C1 (configuration not stated)	4.556
COC(=O)c1cnc(I)n1C	9.312
OCCc1cn2c(n1)CCCC2	-5.716
CCC(=O)N1CCN(C(=O)CC)C(C)C1 (configuration not stated)	1.257
CC1(C#N)CCC(=O)NC1 (configuration not stated)	-17.52
CC1=NN(c2ccc(C(=O)n3cnnc3N)cc2)CC1	14.76
NCC1(CC(N)=O)CC1	5.71
NC1CC(=O)N(c2ccccc2)C1 (configuration not stated)	11.31
COc1ccccc1OCCN1CCC(O)CC1	0.5393
O=C(NCc1csc(N2CCCC2)n1)C1CNCCO1 (configuration not stated)	10.72
CN(Cc1ccc(-n2cccn2)cc1)C(=O)[C@@H]1CCN1	0.6107
NC(=O)Cc1csc(-c2ccco2)n1	-10.32
CC(C)CC(C)NCc1ccc(C(N)=O)o1 (configuration not stated)	24.39
Cc1nc2ccc(C(=O)N[C@@H]3COCC[C@H]3O)cc2s1	-17.7
CC(=O)NC(C)C(=O)NCc1ccc(C)c(F)c1 (configuration not stated)	0.9925
Nc1[nH]ncc1CCCO	4.013
CC(C)NC(=O)c1cc(S(=O)(=O)N2CCOCC2)cs1	-0.1152
O=C(CNc1cccc2ccccc12)N1CCNC1=O	21.46
CNc1cc(Cl)ccc1C(=O)N(C)C	6.165
CNC(=O)c1ccc(NC(=O)N(C)CCOC)cc1	14.59
O=C(CN1CCCCC1=O)Nc1ncc(Cl)s1	-11.85
O=C1CN(C(=O)COCC2CC2)c2ccccc2N1	-0.7125
CC(CO)N(CC1CCC1)c1ccc2nnnn2n1 (configuration not stated)	13.76

Some entries from above, unchanged:

| Compound | effect |
|---|---|
| `O=C(CN1CCCCC1=O)Nc1ncc(Cl)s1` | -11.85 |
| `CC(CO)N(CC1CCC1)c1ccc2nnnn2n1` (configuration not stated) | 13.76 |
| `CC(C)N(C)C(=O)C(N)c1ccccc1` (configuration not stated) | 1.446 |
| `CN1CCCCC1CC(=O)NCCc1ccc(O)cc1` (configuration not stated) | -1.286 |
| `COCCn1cnnc1CCNc1ncccn1` | -34.62 |
| `Cn1nccc1[C@H]1OCC[C@@H]1N` | -8.576 |
| `CNC(=O)c1ccc(NC(=O)N(C)CCOC)cc1` | 14.59 |
| `Cc1cc(NC(=O)CCN(C)C(C)CO)no1` (configuration not stated) | 8.564 |

Measurements from “University of Dundee, Small-Polar-MMV Screening Library” (2021), ChEMBL document CHEMBL3988442.